Values joined by “and” are separate entries in the source; they are usually repeats but may differ in a detail not shown here. Equal entries are not always repeated. The shares of active, inactive and inconclusive entries below differ from those in the screen. For part of these data: Potencies of inconclusive entries are doubtful fits and often do not repeat. Active and inactive are the calls of the source. Unless noted, the call rests on the fitted dose curve; in most records, active means well fitted curve in the direction sought with a large enough effect; inconclusive means small, poorly fitted or top-dose-only effect, or another doubt; inactive means no such curve, though single readings can be large; an effect the other way counts as inactive or inconclusive.
Tests used:
[1] = molecular target: ATP-dependent 6-phosphofructokinase (Trypanosoma brucei brucei) (UniProt O15648); test: qHTS Validation Assay to Find Inhibitors of T. brucei phosphofructokinase (AID 485368); further: potency means the concentration at half of the fitted maximal effect; settings: T. brucei PFK enzyme assay, qHTS 7-point titration; series mostly up to 57.5 µM
Outline: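 Steps: substrate mix (0.5 mM F6P, 0.1 mM ATP, MgCl2, TEA pH 8.0); compound; 1.25 nM T. brucei PFK; 45 min RT; ATP depletion 10 min; ADP-to-ATP detection 10 min; luminescence read; curve fitting and classification.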

Sequences of proteins named here, by UniProt entry; tags and fusion partners are left off. A change or cut given only in a name is not applied to a line headed by its entry.
UniProt O15648: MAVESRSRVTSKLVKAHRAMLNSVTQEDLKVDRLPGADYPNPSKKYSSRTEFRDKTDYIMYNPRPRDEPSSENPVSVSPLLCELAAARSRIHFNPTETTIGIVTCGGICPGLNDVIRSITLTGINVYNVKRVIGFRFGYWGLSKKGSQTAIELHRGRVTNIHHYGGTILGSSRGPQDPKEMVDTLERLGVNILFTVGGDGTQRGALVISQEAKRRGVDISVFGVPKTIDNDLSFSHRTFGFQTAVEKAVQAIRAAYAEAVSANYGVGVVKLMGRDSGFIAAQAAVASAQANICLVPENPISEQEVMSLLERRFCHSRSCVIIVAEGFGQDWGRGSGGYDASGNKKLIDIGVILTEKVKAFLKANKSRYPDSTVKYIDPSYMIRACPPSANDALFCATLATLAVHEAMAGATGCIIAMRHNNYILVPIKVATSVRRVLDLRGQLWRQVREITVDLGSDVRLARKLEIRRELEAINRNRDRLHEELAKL
UniProt O89049, whole entry, looked up: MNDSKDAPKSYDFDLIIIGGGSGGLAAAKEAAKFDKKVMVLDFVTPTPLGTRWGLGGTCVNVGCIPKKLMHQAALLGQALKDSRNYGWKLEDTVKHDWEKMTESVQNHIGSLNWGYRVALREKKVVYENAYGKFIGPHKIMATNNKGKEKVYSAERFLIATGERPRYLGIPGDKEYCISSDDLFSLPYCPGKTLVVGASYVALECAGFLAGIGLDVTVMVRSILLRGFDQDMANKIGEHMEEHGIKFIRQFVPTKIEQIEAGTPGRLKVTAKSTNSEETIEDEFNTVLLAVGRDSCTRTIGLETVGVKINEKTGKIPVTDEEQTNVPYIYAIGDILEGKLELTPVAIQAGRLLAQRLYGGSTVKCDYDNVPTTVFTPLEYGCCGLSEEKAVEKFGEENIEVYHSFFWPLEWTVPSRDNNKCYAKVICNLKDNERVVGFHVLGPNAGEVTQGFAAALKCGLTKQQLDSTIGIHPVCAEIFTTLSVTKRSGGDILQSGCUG
UniProt Q99549: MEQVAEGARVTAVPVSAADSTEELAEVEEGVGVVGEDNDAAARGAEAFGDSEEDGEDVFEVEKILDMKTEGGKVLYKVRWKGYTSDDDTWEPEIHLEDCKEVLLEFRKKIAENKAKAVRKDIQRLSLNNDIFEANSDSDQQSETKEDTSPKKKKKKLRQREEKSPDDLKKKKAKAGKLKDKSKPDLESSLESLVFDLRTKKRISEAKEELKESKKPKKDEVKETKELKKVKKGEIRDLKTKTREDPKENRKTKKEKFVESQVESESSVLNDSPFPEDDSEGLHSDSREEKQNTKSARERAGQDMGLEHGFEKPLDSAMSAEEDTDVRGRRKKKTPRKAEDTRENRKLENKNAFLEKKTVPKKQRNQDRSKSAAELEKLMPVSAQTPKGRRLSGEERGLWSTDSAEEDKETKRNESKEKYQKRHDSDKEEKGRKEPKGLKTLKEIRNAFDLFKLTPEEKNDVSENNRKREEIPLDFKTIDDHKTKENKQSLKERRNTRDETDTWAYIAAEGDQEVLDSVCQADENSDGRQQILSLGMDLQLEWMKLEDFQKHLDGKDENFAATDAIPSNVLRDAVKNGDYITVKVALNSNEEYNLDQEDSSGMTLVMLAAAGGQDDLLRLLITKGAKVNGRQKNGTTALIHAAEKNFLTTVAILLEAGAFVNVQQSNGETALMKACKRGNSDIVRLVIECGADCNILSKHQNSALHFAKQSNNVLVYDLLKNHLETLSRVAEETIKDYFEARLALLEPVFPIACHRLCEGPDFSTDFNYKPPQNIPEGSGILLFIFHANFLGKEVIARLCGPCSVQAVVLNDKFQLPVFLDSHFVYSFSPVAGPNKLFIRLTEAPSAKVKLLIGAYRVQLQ
UniProt P83916, whole entry, looked up: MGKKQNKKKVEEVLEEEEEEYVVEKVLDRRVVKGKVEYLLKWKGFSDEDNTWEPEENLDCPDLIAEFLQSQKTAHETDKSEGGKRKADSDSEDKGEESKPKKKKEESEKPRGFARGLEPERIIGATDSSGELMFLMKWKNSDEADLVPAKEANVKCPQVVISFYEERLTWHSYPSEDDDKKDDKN
UniProt P39748, whole entry, looked up: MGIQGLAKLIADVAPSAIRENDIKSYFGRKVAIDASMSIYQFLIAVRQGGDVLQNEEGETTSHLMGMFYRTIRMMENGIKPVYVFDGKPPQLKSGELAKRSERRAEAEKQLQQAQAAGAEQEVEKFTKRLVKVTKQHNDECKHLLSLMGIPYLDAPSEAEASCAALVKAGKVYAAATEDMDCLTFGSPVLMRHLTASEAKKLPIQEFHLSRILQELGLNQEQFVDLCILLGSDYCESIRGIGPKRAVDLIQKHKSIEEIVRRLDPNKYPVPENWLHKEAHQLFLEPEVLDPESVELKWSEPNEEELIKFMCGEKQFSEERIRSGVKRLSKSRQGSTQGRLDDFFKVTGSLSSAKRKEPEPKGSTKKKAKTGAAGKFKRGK

[2] = Quantitative high throughput screen for delayed death inhibitors of the malarial parasite plastid, 96 hour incubation (AID 488745); settings: Plasmodium falciparum growth; series mostly up to 28.7 µM; further: nearly all actives have a fitted effect of over 70% in size; further: potency means the concentration at half of the fitted maximal effect
Outline: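 Luciferase-expressing P. falciparum in erythrocytes (2% hematocrit, 0.1% parasitemia) incubated with compound for 96 h at 37 C, 5% CO2, in RPMI 1640 with 0.5% Albumax. Growth inhibition read as decreased luminescence.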

[3] = qHTS Validation Assay to Find Inhibitors of Chronic Active B-Cell Receptor Signaling (AID 485345; active means well fitted curve in the direction sought with a large enough effect in the main read-out, with a control signal flat, not every such curve was filed as active; inconclusive means small, poorly fitted or top-dose-only effect, or effect the other way, or a change in a side signal; inactive means no such curve, though single readings can be large or run the other way;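 further: 0% = untreated basal cells and 100% = 10 µM MG-132 proteasome inhibitor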); settings: ABC-DLBCL cells, chronic BCR signaling reporter; activity change: CBG luciferase, at 46.1 µM (top of the series)
Outline: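 TMD8 ABC-DLBCL cells stably carrying doxycycline-inducible IkappaBalpha–green luciferase fusion plus unfused red luciferase; compounds 46 uM to 3 nM, 4 h at 37C with doxycycline. Corrected green/red luminescence ratio normalized to 10 uM MG-132 and basal cell wells; curves fitted.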

[4] = Quantitative high throughput screen for delayed death inhibitors of the malarial parasite plastid, 48 hour incubation (AID 488752); settings: Plasmodium falciparum growth; series mostly up to 28.7 µM; further: potency means the concentration at half of the fitted maximal effect; nearly all actives have a fitted effect of over 65% in size
Outline: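 Erythrocytes infected with firefly luciferase-expressing P. falciparum (2% hematocrit, 0.1% parasitemia) cultured with compound for 48 h at 37 C, 5% CO2, in RPMI 1640/0.5% Albumax. Growth inhibition read as loss of luminescence.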

[5] = molecular target: Thioredoxin reductase 1, cytoplasmic (Rattus norvegicus) (UniProt O89049); test: qHTS Assay for Inhibitors of Mammalian Selenoprotein Thioredoxin Reductase 1 (TrxR1) (AID 488773); settings: purified TrxR1 enzyme activity; Potency: inhibition; series mostly up to 57.1 µM; further: nearly all actives have a fitted effect of over 40% in size; further: potency means the concentration at half of the fitted maximal effect
Outline: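 Steps: enzyme (90 nM) plus NADPH (400 uM final), 5 min at ~22 deg C; compound added, 15 min; selenite (400 uM final) added; fluorescence followed for 8 min. Concentration-response curves derived from the normalized delta values.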

[6] = molecular target: M-phase phosphoprotein 8 (Homo sapiens) (UniProt Q99549); test: qHTS Validation Assay for Inhibitors for MPP8 Chromodomain Interactions with Methylated Histone Tails (AID 488949); settings: AlphaScreen MPP8 binding to H3K9me3 peptide; series mostly up to 57.1 µM; further: nearly all actives have a fitted effect of over 55% in size; further: potency means the concentration at half of the fitted maximal effect
Outline: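 MPP8 (50 nM) was preincubated with biotinylated H3(1-18)K9me3 peptide (50 nM) in PBS pH 7.4, 0.01% Tween-20 for 30 min at room temperature, then with compounds for 30 min; binding was detected by AlphaScreen.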

[7] = molecular target: Chromobox protein homolog 1 (Homo sapiens) (UniProt P83916); test: qHTS Validation Assay for Inhibitors of HP1-beta Chromodomain Interactions with Methylated Histone Tails (AID 488953); settings: HP1-beta chromodomain / methylated histone peptide binding assay; series mostly up to 114 µM; further: nearly all actives have a fitted effect of over 50% in size; further: potency means the concentration at half of the fitted maximal effect
Outline: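 HP1-beta (50 nM) preformed 30 min with biotinylated H3(1-18)K9me3 peptide (50 nM) in PBS pH 7.4, 0.01% Tween-20. Compounds added for 30 min at room temperature. Complex disruption read by AlphaScreen with streptavidin donor/nickel chelate acceptor beads (10 ug/mL each).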

[8] = molecular target: Thioredoxin reductase 1, cytoplasmic (Rattus norvegicus) (UniProt O89049); test: qHTS Assay for Substrates of Mammalian Selenoprotein Thioredoxin Reductase 1 (TrxR1) (AID 488772); settings: purified TrxR1, NADPH consumption substrate assay; series mostly up to 57.1 µM;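 further: NADPH fluorescence in the first read after selenite addition and not the 8 min delta; 0% is about no effect; a drop in NADPH fluorescence below the no-compound background marks a TrxR1 substrate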
Outline: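 Quantitative HTS in Tris-HCl buffer at pH 7.5 with EDTA and Tween-20, using rat TrxR1, 400 uM NADPH and 400 uM selenite (final). A fall in initial NADPH fluorescence relative to background marked substrate behaviour.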

[9] = molecular target: Flap endonuclease 1 (Homo sapiens) (UniProt P39748); test: qHTS Validation Assay for the Inhibitors of Human Flap endonuclease 1 (FEN1) (AID 488816); settings: FEN1 nuclease activity, fluorogenic DNA substrate; series mostly up to 57.1 µM; further: potency means the concentration at half of the fitted maximal effect
Outline: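 Human FEN1 (10 nM) preincubated 15 min at room temperature with compounds, then flap DNA substrate added at 50 nM final. Fluorescence read at 0 and 15 min; concentration-response fitted with four-parameter Hill equation.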

For `CC(NC(C)(C)C)C(=O)c1cccc(Cl)c1` (configuration not stated), which Potency [1] is on record?
The Potency was inconclusive: 0.757 µM [activator, single point].

And the Potency [2]?
Its Potency is “inactive”.

For `CN[C@@H]1C[C@@H](c2ccc(Cl)c(Cl)c2)c2ccccc21`, which activity change [3] is on record?
Its activity change is inconclusive: 33%.

What about the Potency [1] of the same compound?
Its Potency is inconclusive: 21.3 µM [falling, single point].

And the Potency [2]?
The Potency was inconclusive: 18.5 µM [inhibitor, single point].

What about the Potency [4] of the same compound?
The Potency was inconclusive: 10.4 µM [inhibitor, single point].

And the Potency [5]?
Its Potency is “inactive”.

Which Potency [1] does the source give for `Cc1c(C(=O)c2cccc3ccccc23)c2cccc3c2n1[C@H](CN1CCOCC1)CO3` here?
The Potency was “inactive”.

And the Potency [2]?
The Potency was inconclusive: 0.0185 µM [inhibitor, full curve, poor fit].

What about the Potency [4] of the same compound?
Its Potency is inconclusive: 18.5 µM [inhibitor, single point].

What about the Potency [6] of the same compound?
Its Potency is inconclusive: 28.2 µM [inhibitor, full curve, poor fit].

With `COc1ccc(C(CN(C)C)C2(O)CCCCC2)cc1` (configuration not stated) as the compound, how does the Potency [1] read?
Its Potency is active: 5.36 µM.

What about the Potency [6] of the same compound?
The Potency was “inactive”.

With `COc1ccc(CNC(=O)/C=C/c2ccc3[nH]cc(CCN(C)C)c3c2)cc1` as the compound, how does the Potency [1] read?
Its Potency is “inactive”.

And the Potency [2]?
The Potency was active: 11.7 µM.

What about the Potency [4] of the same compound?
The Potency was inconclusive: 13.1 µM [inhibitor, partial curve, poor fit].

And the Potency [6]?
The Potency was inconclusive: 79.4 µM [inhibitor, single point].

Which Potency [1] does the source give for `N#CC(C#N)=Cc1ccc(O)c(O)c1` here?
Its Potency is inconclusive: 8.49 µM [falling, single point].

And the Potency [2]?
The Potency was inconclusive: 10.4 µM [inhibitor, partial curve].

And the Potency [5]?
Its Potency is active: 16.8 µM.

And the Potency [6]?
Its Potency is inconclusive: 44.7 µM [inhibitor, partial curve, poor fit] and inconclusive: 29.9 µM [inhibitor, single point].

And the Potency [7]?
The Potency was inconclusive: 22.4 µM [inhibitor, partial curve].

For `NCC(O)c1ccc(O)cc1` (configuration not stated), which Potency [1] is on record?
Its Potency is inconclusive: 37.9 µM [falling, single point].

What about the Potency [8] of the same compound?
The Potency was “inactive”.

And the Potency [7]?
The Potency was “inactive”.

Which Potency [1] does the source give for `C=C(C)[C@H]1Cc2c(ccc3c2O[C@@H]2COc4cc(OC)c(OC)cc4[C@@H]2C3=O)O1` here?
The Potency was inconclusive: 0.849 µM [activator, full curve, poor fit].

What about the Potency [2] of the same compound?
Its Potency is inconclusive: 16.5 µM [inhibitor, single point].

What about the Potency [7] of the same compound?
Its Potency is active: 35.5 µM.

Which Potency [1] does the source give for `CC[C@@H](CO)NC(=O)[C@@H]1C=C2c3cccc4c3c(cn4C)C[C@H]2N(C)C1` here?
Its Potency is “inactive”.

What about the Potency [5] of the same compound?
The Potency was active: 10.6 µM.

What about the Potency [9] of the same compound?
Its Potency is inconclusive: 7.52 µM [inhibitor, partial curve].

What about the Potency [7] of the same compound?
The Potency was inconclusive: 79.4 µM [inhibitor, partial curve, poor fit].

What does the source list for `C[N+](C)(C)CC#CCOC(=O)Nc1cccc(Cl)c1`?
Potency [1]: inactive; Potency [2]: inconclusive: 18.5 µM [inhibitor, single point]; Potency [4]: inconclusive: 10.4 µM [inhibitor, single point]; Potency [5]: active: 21.2 µM

Which results are given for `CN(N=O)c1cc(O)ccc1O`?
Potency [1]: active: 7.57 µM; Potency [2]: inconclusive: 0.0026 µM [inhibitor, full curve, poor fit]; Potency [5]: active: 0.752 µM

Which results are given for `CCCCC/C=C\C/C=C\C/C=C\C/C=C\CCCC(=O)NCC(=O)O`?
Potency [1]: inconclusive: 4.78 µM [falling, full curve]; Potency [5]: inconclusive: 21.2 µM [inhibitor, single point]; Potency [6]: inconclusive: 4.74 µM [inhibitor, full curve]

What does the source list for `O=c1[nH]c2ccccc2n1CCCN1CCC(n2c(=O)[nH]c3cc(Cl)ccc32)CC1`?
Potency [1]: inconclusive: 3.01 µM [falling, partial curve, poor fit]; Potency [2]: active: 1.17 µM; Potency [4]: active: 10.4 µM; Potency [7]: inconclusive: 39.8 µM [inhibitor, partial curve]

For `CC(C)N(CCC(C(N)=O)(c1ccccc1)c1ccccn1)C(C)C` (configuration not stated), which Potency [1] is on record?
Its Potency is “inactive and inconclusive: 849 nM [activator, full curve, poor fit]”.

And the Potency [2]?
Its Potency is “inactive and inconclusive: 8.3 nM [inhibitor, full curve, poor fit]”.

What about the Potency [9] of the same compound?
Its Potency is “inactive”.

What does the source list for `CC[C@@H](CO)NC(=O)[C@@H]1C=C2c3cccc4[nH]cc(c34)C[C@H]2N(C)C1`?
Potency [1]: inconclusive: 19 µM [activator, partial curve]; Potency [5]: inconclusive: 2.67 µM [inhibitor, full curve]; Potency [9]: inconclusive: 13.4 µM [inhibitor, partial curve]; Potency [7]: inconclusive: 79.4 µM [inhibitor, partial curve, poor fit]

For `S=C(NC1CCCCC1)N1CCC(c2cnc[nH]2)CC1`, which Potency [1] is on record?
Its Potency is “inactive”.

What about the Potency [7] of the same compound?
The Potency was inconclusive: 56.2 µM [inhibitor, partial curve].

For `COc1ccccc1N1CCNCC1`, which Potency [1] is on record?
The Potency was inconclusive: 0.601 µM [activator, full curve, poor fit].

And the Potency [5]?
Its Potency is inconclusive: 21.2 µM [inhibitor, single point].

Source: PubChem BioAssay (NCATS)
